Source: article PMC8508734 (International Journal of Molecular Sciences, 2021)
These are yes or no findings as the source states them, for the method shown. For some of these results: Binding seen in cells or lysates may run through a third protein. Some binding calls cover weakened binding; strength is not graded here.

Tests used:
[1] = biological target: H3R-YFP (rat histamine H3 receptor, long isoform H3(445)R, fused to Yellow Fluorescent Protein) (rat) (UniProt Q9QYN8); assay: co-IP; HEK 293 cells co-transfected with H3R-YFP and Xpress-H3R; lysis in 50 mM Tris pH 7.5, 150 mM NaCl, 10 mM EDTA, 0.5% Triton X-100; precipitated by the YFP (anti-GFP antibodies with protein A-sepharose in the methods, GFP-Trap agarose beads in the legend), blot with anti-Xpress antibody; background: Xpress-H3R without H3R-YFP
[2] = biological target: native brain histamine H3 receptor (H3R) (rat (endogenous in rat brain)) (UniProt Q9QYN8); assay: SDS-PAGE and Western blot (SDS-resistant dimer); membranes from rat cerebral cortex, cerebellum and hypothalamus, NuPAGE 7% Tris-acetate gel, reducing conditions, anti-H3R antibody
[3] = biological target: H3R-RLuc (rat histamine H3 receptor, long isoform H3(445)R, fused to Renilla Luciferase) (rat) (UniProt Q9QYN8); assay: FRET or BRET; BRET in living rat cortical neurons in primary culture co-transfected with H3R-RLuc and H3R-YFP or TAAR1-YFP; without or with H3R ligands (100 nM)
[4] = biological target: H3R-RLuc (rat histamine H3 receptor, long isoform H3(445)R, fused to Renilla Luciferase) (rat) (UniProt Q9QYN8); assay: FRET or BRET; BRET on sub-cellular fractions (sucrose step gradient: plasma membrane and ER fractions) and membrane preparations of HEK 293 cells co-transfected with H3R-RLuc and H3R-YFP

Molecule: Xpress-H3R (H3 receptor tagged at its N-terminus with an Xpress epitope) (from UniProt Q9QYN8 1-445)
- binding [1]: binds

Molecule: native brain histamine H3 receptor (H3R) (from UniProt Q9QYN8 1-445)
- binding [2]: binds

B1: H3R-YFP (rat histamine H3 receptor, long isoform H3(445)R, fused to Yellow Fluorescent Protein) (receptor, UniProt Q9QYN8 1-445, looked up)
chain: MERAPPDGLMNASGTLAGEAAAAGGARGFSAAWTAVLAALMALLIVATVLGNALVMLAFVADSSLRTQNNFFLLNLAISDFLVGAFCIPLYVPYVLTGRWTFGRGLCKLWLVVDYLLCASSVFNIVLISYDRFLSVTRAVSYRAQQGDTRRAVRKMALVWVLAFLLYGPAILSWEYLSGGSSIPEGHCYAEFFYNWYFLITASTLEFFTPFLSVTFFNLSIYLNIQRRTRLRLDGGREAGPEPPPDAQPSPPPAPPSCWGCWPKGHGEAMPLHRYGVGEAGPGVEAGEAALGGGSGGGAAASPTSSSGSSSRGTERPRSLKRGSKPSASSASLEKRMKMVSQSITQRFRLSRDKKVAKSLAIIVSIFGLCWAPYTLLMIIRAACHGRCIPDYWYETSFWLLWANSAVNPVLYPLCHYSFRRAFTKLLCPQKLKVQPHGSLEQCWK
notes: histamine H3 receptor, rat, long isoform H3(445)R (445 residues), cDNA amplified without its stop codon and cloned into pEYFP-N1; The same construct was expressed in HEK 293 cells and in rat cortical neurons; the assay tells which; also called C-terminal YFP-fused H3R; source: rat cortical neurons in primary culture, transfected (lipofectamine 2000); not shown: YFP, C-terminal, kept
- binding [3]: binds
- binding [4]: binds
